Results deposited as PubChem BioAssay AID504804 (Drosophila RNAi Screening Center, 2011).

Assay: 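Fly genes whose loss lessens doxorubicin-driven cell death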 (primary screen)
Cell system: Drosophila Kc cells
Knock-down reagent: long dsRNA against Drosophila genes, 0.5 µg dsRNA per well
Time to read-out: 96 h (48 h knock-down, then 48 h drug)
Treatment: doxorubicin 5 µg/ml for 48 h, added 48 h after dsRNA
Measurement: 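Viability measured as cellular ATP by luminescence after 48 h knock-down then 48 h doxorubicin at 5 µg/ml; unnormalised plate counts for each replicate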
Direction: raw ATP luminescence: higher = more viable cells, protection from doxorubicin
Hit rule: 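Active when both duplicate wells lie at least 2 SD above the plate mean and protection is confirmed by rescreening and independent dsRNAs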
The deposit covers about 19,000 reagents; shown is a random part of those with a known target gene and a result. Over the whole deposit, 47 (0.25%) got an active call. 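Signals are raw, not normalised; exact z-scores behind calls not deposited; actives needed confirmation, so some wells reaching 2 SD are inactive.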 A number with no mark means an inactive call. A plus sign joins genes that one reagent is predicted to hit.

no.	predicted target	DRSC id	raw ATP luminescence, replicate 1	raw ATP luminescence, replicate 2
1	Obp85a (GeneID 41006)	DRSC14362	52140	63803
2	CG7810 (GeneID 34139)	DRSC03072	91687	68763
3	CG6707 (GeneID 39168)	DRSC10697	72207	60573
4	RpL7 (GeneID 34352)	DRSC03417	21233	20370
5	CG11180 (GeneID 37330)	DRSC06055	57420	44860
6	Svip (GeneID 317834)	DRSC08982	1.52e5	1.59e5
7	CG32052 (GeneID 326184)	DRSC10966	71270	73870
8	Ten-a (GeneID 32183)	DRSC18924	1.67e5	2.02e5
9	Ten-a (GeneID 32183)	DRSC19496	57090	55520
10	Ten-a (GeneID 32183)	DRSC19700	3.40e5	3.13e5
11	Ten-a (GeneID 32183)	DRSC19793	4.13e5	3.82e5
12	Ten-a (GeneID 32183)	DRSC19864	3.26e5	3.45e5
13	Ten-a (GeneID 32183)	DRSC19865	3.53e5	3.89e5
14	Ten-a (GeneID 32183)	DRSC20290	3.63e5	3.20e5
15	CG13110 (GeneID 34253)	DRSC02208	31893	71397
16	scpr-A + scpr-C	DRSC15737	63180	36393
17	alphaKap4 (GeneID 38675)	DRSC09823	72420	79990
18	CG6136 (GeneID 41877)	DRSC15975	42723	22923
19	Cpr76Bc (GeneID 40122)	DRSC11062	72993	61693
20	CG5004 (GeneID 32698)	DRSC19929	3.09e5	2.89e5
21	CG5004 (GeneID 32698)	DRSC19930	3.53e5	2.36e5
22	CG5004 (GeneID 32698)	DRSC20123	1.40e5	1.44e5
23	Gale (GeneID 38076)	DRSC08234	39007	61683
24	CG18284 (GeneID 34460)	DRSC02661	1.39e5	82050
25	CG18284 (GeneID 34460)	DRSC20756	2.51e5	2.54e5
26	qkr58E-1 (GeneID 37561)	DRSC04709	56730	46570
27	Rsph4a (GeneID 37831)	DRSC04338	72410	84003
28	CG8483 (GeneID 41623)	DRSC16430	38643	26230
29	nxf2 (GeneID 39843)	DRSC10403	31347	28700
30	Nf-YB (GeneID 35261)	DRSC02057	47860	46167
31	grp + CG31782 (retired record)	DRSC03541	91457	58200
32	tld (GeneID 42945)	DRSC17084	53040	59070
33	CG16704 (GeneID 33589)	DRSC00475	26527	39200
34	CG9686 (GeneID 31921)	DRSC18439	3.77e5	3.56e5
35	CG11413 + CG4622	DRSC04109	97683	56017
36	fzo (GeneID 42745)	DRSC16954	72610	64190
37	CG42597 (GeneID 8674090)	DRSC03681	70067	85187
38	NAAT1 (GeneID 31457)	DRSC18300	42100	46920
39	trem (GeneID 42392)	DRSC15575	34090	28640
40	Vha13 (GeneID 42341)	DRSC16895	56390	84880
41	CG6503 (GeneID 50079)	DRSC16056	52960	44090
42	Ugt303A1 (GeneID 53503)	DRSC15641	44327	46847
43	rost (GeneID 34222)	DRSC03603	72080	61737
44	pnr (GeneID 44849)	DRSC17027	41283	50560
45	ProtA (GeneID 34866)	DRSC03372	43100	46970
46	CG31624 (GeneID 35393)	DRSC02617	72647	64957
47	l(2)k10201 (GeneID 48373)	DRSC06439	42437	83720
48	l(2)k10201 (GeneID 48373)	DRSC07640	39597	72417
49	Ir94f (GeneID 318632)	DRSC13621	2.08e5	1.81e5
50	ninaG (GeneID 41369)	DRSC16102	57103	57703
51	puc (GeneID 40958)	DRSC17034	39260	43870
52	arx (GeneID 40061)	DRSC10386	15820	20353
53	CG15343 (GeneID 31765)	DRSC18028	46850	42900
54	side-VIII (GeneID 37310)	DRSC05880	1.05e5	60097
55	side-VIII (GeneID 37310)	DRSC05883	16900	24377
56	side-VIII (GeneID 37310)	DRSC06157	2.01e5	1.63e5
57	kra (GeneID 40680)	DRSC12320	55103	22053

Entries listed so far whose gene name begins with P or p:
predicted target	DRSC id	raw ATP luminescence, replicate 1	raw ATP luminescence, replicate 2
pnr (GeneID 44849)	DRSC17027	41283	50560
ProtA (GeneID 34866)	DRSC03372	43100	46970
puc (GeneID 40958)	DRSC17034	39260	43870
